Data from the supplement of paper PMC8732350.
Where “and” joins values, the source holds several entries; their conditions need not be identical. Equal values may be shown once. Where a name gives a salt, the structure may show the parent alone. ± gives the standard deviation of the averaged measurements. This is one part of the list. This data set is noisy: repeats of one test often differ as much as different tests do.

tested on: A549; assay: surface PD-L1 immunofluorescence intensity relative to IFN-gamma-only control (ratio); higher = more PD-L1 expression; details: 10 µM; exposure time 24 h; IFN-gamma 100 ng/mL

Row | SMILES | surface PD-L1 immunofluorescence intensity
1 | C1CCC2(CC1)CCNCC2 [4,4-Pentamethylenepiperidine hydrochloride] | 1
2 | CCCNS(=O)(=O)Nc1ncnc(OCCOc2ncc(Br)cn2)c1-c1ccc(Br)cc1 [Macitentan] | 1.1
3 | CC(CCc1ccc(O)cc1)NCCc1ccc(O)c(O)c1 (stereo not given) [Dobutamine hydrochloride] | 1.09 ± 0.082
4 | CC(O)(C(=O)Nc1ccc(S(=O)(=O)c2ccccc2)cc1)C(F)(F)F (stereo not given) | 0.98 and 0.885
5 | CSc1ccc(/C=C2/C(C)=C(CC(=O)O)c3cc(F)ccc32)cc1 [Sulindac Sulfide] | 1.03
6 | CC(C)N(CCC(=O)c1ccc2ccccc2c1)Cc1ccccc1 | 0.985 and 0.972
7 | CC(C)(C)C#Cc1cc(N(C(=O)[C@H]2CC[C@H](C)CC2)[C@H]2CC[C@H](O)CC2)c(C(=O)O)s1 | 1
8 | CCOC(=O)c1ccc(C#Cc2ccc3c(c2)C(C)(C)CCS3)nc1 [Tazarotene (Avage)] | 1.08
9 | CCC(C)(C)c1ccc(CC(C)CN2C[C@@H](C)O[C@@H](C)C2)cc1 (stereo not given in full) [Amorolfine HCl] | 0.962
10 | CC[C@]12CCCN3CCc4c(n(c5ccccc45)[C@@](O)(C(=O)OC)C1)[C@@H]32 [Vincamine] | 0.863
11 | CC(=C(CCO)SSCC1CCCO1)N(C=O)Cc1cnc(C)nc1N (stereo in doubt) [Fursultiamine Hydrochloride] | 0.986
12 | CCC(C)(CN(C)C)OC(=O)c1ccccc1 (stereo not given) [Amyleine hydrochloride] | 0.874
13 | Cn1c(=O)c2c(ncn2CC(O)CO)n(C)c1=O (stereo not given) [Diprophylline] | 0.845
14 | CCCc1nc(C(C)(C)O)c(C(=O)OCc2oc(=O)oc2C)n1Cc1ccc(-c2ccccc2-c2nnn[nH]2)cc1 [Olmesartan medoxomil (Benicar)] | 1.1
15 | NC(=O)c1cccnc1 [Nicotinamide] | 1.03 ± 0.078
16 | CNC1(C)C2CCC(C2)C1(C)C (stereo not given) [Mecamylamine hydrochloride] | 0.976
17 | Cc1c(Cn2c(C)nc3c(C(=O)O)cc(N4CCOCC4)cc32)cccc1C(F)(F)F | 1.02 ± 0.044
18 | COc1ccc(CNCc2cccc3ccccc23)cc1 | 0.97
19 | NC(=O)[C@@H](CCC(F)(F)F)N(Cc1ccc(-c2ncon2)cc1F)S(=O)(=O)c1ccc(Cl)cc1 | 1.09
20 | CC1=C(C(=O)O)N2C(=O)[C@@H](NC(=O)[C@H](N)c3ccc(O)cc3)[C@H]2SC1 [Cefadroxil] | 1.03
21 | C[C@@]1(O)[C@H](O)[C@@H](CO)O[C@H]1n1cnc2c(NC3CCCC3)nc(Cl)nc21 | 1.01
22 | CC(C)c1onc(-c2c(Cl)cccc2Cl)c1COc1ccc(/C=C/c2cccc(C(=O)O)c2)c(Cl)c1 | 1.08 and 1.07
23 | C=CCN1CCCC1CNC(=O)c1cc2nn[nH]c2cc1OC (stereo not given) [Alizapride HCl] | 0.938
24 | N[C@@H](CSS(=O)(=O)O)C(=O)O [S-Sulfo-L-cysteine sodium salt] | 1.14
25 | CC(C)(Oc1ccc(C2CC2(Cl)Cl)cc1)C(=O)O (stereo not given) [Ciprofibrate] | 1.02
26 | CN(CCOc1ccc(-c2ccc3c(c2)OCO3)cc1C(C)(C)C)CC(=O)O | 1.01
27 | N[C@@H](C(=O)O)c1ccc(O)c(C(=O)O)c1 [(R)-3-Carboxy-4-hydroxyphenylglycine] | 1.03

Row | SMILES | surface PD-L1 immunofluorescence intensity
28 | CCn1cc(C(=O)O)c(=O)c2cc(F)c(N3CCNCC3)cc21 [Norfloxacin] | 1.01
29 | c1ccc(N2CCN(CCCOc3ccc4c(c3)OCO4)CC2)cc1 [BP 554 maleate] | 1.08
30 | Cc1cc(Cc2cc(C)cc(C(C)(C)C)c2O)c(O)c(C(C)(C)C)c1 | 0.909
31 | Cc1nc2c(OCc3ccccc3)cccn2c1CC#N | 1.04
32 | CCOC(=O)C1=C(C)NC(C)=C(C(=O)OC)C1c1cccc([N+](=O)[O-])c1 (stereo not given) [Nitrendipine] | 1.03 ± 0.042
33 | CC(CN1c2ccccc2Sc2ccccc21)N(C)C (stereo not given) [Promethazine hydrochloride] | 1.04
34 | CCOc1cc(N2CCC(O)CC2)ccc1Nc1ncc2c(n1)N(C)c1ccccc1C(=O)N2C | 0.913
35 | CN(C)[C@@H]1CCc2[nH]c3ccc(NC(=O)c4ccc(F)cc4)cc3c2C1 | 1.02
36 | COc1cc(C[C@H]2C(=O)OC[C@@H]2Cc2ccc(OC)c(OC)c2)ccc1O [Arctigenin] | 1.05
37 | NS(=O)(=O)c1cc2c(cc1C(F)(F)F)NC(Cc1ccccc1)NS2(=O)=O (stereo not given) [Bendroflumethiazide] | 0.97
38 | O=C(c1ccc(OCCN2CCCCC2)cc1)c1c(-c2ccc(O)cc2)sc2cc(O)ccc12 [Raloxifene hydrochloride] | 1.09
39 | CNC(=O)c1ccc(N2C(=S)N(c3cnc(C#N)c(C(F)(F)F)c3)C(=O)C23CCC3)cc1F | 1.02
40 | COc1cc(N)c(Cl)cc1C(=O)NC1CCN(Cc2ccccc2)CC1 [Clebopride maleate] | 0.912
41 | CNC(=O)CN1CCC(Oc2cc3c(Nc4cccc(Cl)c4F)ncnc3cc2OC)CC1 | 0.995
42 | CCN1CCCC1CNC(=O)c1cc(S(=O)(=O)CC)c(N)cc1OC (stereo not given) [Amisulpride] | 0.906 ± 0.058
43 | Nc1nc(N)nc(-c2cc(Cl)ccc2Cl)n1 [Irsogladine maleate] | 0.963 ± 0.059
44 | CCCS(=O)(=O)Nc1ccc(F)c(C(=O)c2c[nH]c3ncc(Cl)cc23)c1F | 1.14
45 | CC1CCc2cc(F)cc3c(=O)c(C(=O)O)cn1c23 (stereo not given) [Flumequine] | 0.914
46 | O=C(NCC1CCCCN1)c1cc(OCC(F)(F)F)ccc1OCC(F)(F)F (stereo not given) [Flecainide acetate] | 1.07 ± 0.041
47 | C[C@@H](O)[C@H]1C(=O)N2C(C(=O)OCOC(=O)C(C)(C)C)=C(SC3CN(C4=NCCS4)C3)[C@H](C)[C@H]12 [Tebipenem pivoxil (L-084)] | 1.02
48 | CCCCOc1ccc(OCCCN2CCOCC2)cc1 [Pramoxine hydrochloride] | 1.02
49 | CC(C)[C@H]1CC[C@H](C(=O)N[C@H](Cc2ccccc2)C(=O)O)CC1 [Nateglinide (Starlix)] | 0.918
50 | COc1c(O)cc2c(c1O)[C@@H]1O[C@H](CO)[C@@H](O)[C@H](O)[C@H]1OC2=O [Bergenin (Cuscutin)] | 1.06
51 | COc1ccc(-n2nc(C(N)=O)c3c2C(=O)N(c2ccc(N4CCCCC4=O)cc2)CC3)cc1 [Apixaban] | 1.09
52 | COc1ccc(C(C)=O)c(O)c1 [Paeonol] | 0.965
53 | CC(C)c1nc(CN(C)C(=O)N[C@H](C(=O)N[C@@H](Cc2ccccc2)C[C@H](O)[C@H](Cc2ccccc2)NC(=O)OCc2cncs2)C(C)C)cs1 [Ritonavir] | 1.05
54 | COc1cc2c(cc1OC)-c1cc3nc4ccccc4nc3n1C(C)(C)C2 | 0.974

Row | SMILES | surface PD-L1 immunofluorescence intensity
55 | CCC(CC)[C@H](NC(C)=O)[C@@H]1[C@H](O)[C@@H](C(=O)O)C[C@H]1NC(=N)N [Peramivir  Trihydrate] | 1.05
56 | COc1ccccc1OCCNCC(O)COc1cccc2[nH]c3ccccc3c12 (stereo not given) [Carvedilol] | 0.9786 ± 0.0016
57 | O=C(O)c1ccccc1Nc1cccc(OCc2ccc3ccccc3n2)c1 [SR 2640 hydrochloride] | 1.01
58 | O=C(O[C@@H]1C[C@@H]2C[C@H]3C[C@H](C1)N2CC3=O)c1c[nH]c2ccccc12 [Dolasetron mesilate] | 1.09
59 | CC(=O)NCCc1c(Cc2ccccc2)[nH]c2ccccc12 [Luzindole] | 1.01
60 | NC1=N[C@@]2(c3cc(NC(=O)c4ccc(F)cn4)ccc3F)COC[C@H]2CS1 | 1.03
61 | COc1ccc(COc2cc3oc(=O)c4cc(C(C)O)ccc4c3cc2OC)cc1 (stereo not given) [Palomid 529] | 0.95106 ± 0.0002
62 | COC1=C(OC)C(=O)C(C/C=C(\C)CC/C=C(\C)CC/C=C(\C)CC/C=C(\C)CC/C=C(\C)CC/C=C(\C)CC/C=C(\C)CC/C=C(\C)CC/C=C(\C)CCC=C(C)C)=C(C)C1=O [Coenzyme Q10 (CoQ10)] | 1.03
63 | Cc1c(OCC(F)(F)F)ccnc1C[S+]([O-])c1nc2ccccc2[nH]1 (stereo not given) [Lansoprazole] | 1.08 ± 0.12
64 | CCN1CCN(c2cc(-c3ccc(F)cc3)c3c(n2)CCCCCC3)CC1 [Blonanserin (Lonasen)] | 1.18
65 | C#CCN(C)CC1=Cc2ccccc2Oc2ccccc21 | 0.991
66 | O=C1CCc2c(ccc3ccccc23)O1 [Splitomicin] | 1.04 ± 0.11
67 | CC[C@@H]1C(=O)N(C)c2cnc(Nc3ccc(C(=O)NC4CCN(C)CC4)cc3OC)nc2N1C1CCCC1 | 1.04
68 | Cn1c(=O)c2c(ncn2C)n(C)c1=O [Caffeine] | 0.993 ± 0.063
69 | O=C1c2ccccc2C(Cc2ccncc2)(Cc2ccncc2)c2ccccc21 [XE 991 dihydrochloride] | 0.966
70 | CCn1c(=O)n(C2=C(CO)CN(CC3CCCCCCC3)CC2)c2ccccc21 | 0.989
71 | CC(C)(C)NCC(O)c1ccc(O)c(CO)c1 (stereo not given) [Salbutamol] | 0.916
72 | CO[C@H]1C[C@@H]2CC[C@@H](C)[C@@](O)(O2)C(=O)C(=O)N2CCCC[C@H]2C(=O)O[C@H]([C@H](C)C[C@@H]2CC[C@@H](OP(C)(C)=O)[C@H](OC)C2)CC(=O)[C@H](C)/C=C(\C)[C@@H](O)[C@@H](OC)C(=O)[C@H](C)C[C@H](C)/C=C/C=C/C=C/1C [Deforolimus (MK-8669)] | 0.927
73 | CCCCC[C@H](O)CC(=O)CCc1ccc(O)c(OC)c1 [Gingerol] | 0.992
74 | CCCCC[C@H](O)CC(=O)CCc1ccc(O)c(OC)c1 [6-Gingerol] | 1.1
75 | CN(C)[C@@H](CCOc1cccc2ccccc12)c1ccccc1 [Dapoxetine HCl (Priligy)] | 1.05
76 | CN(C)CCCC1(c2ccc(F)cc2)OCc2cc(C#N)ccc21 (stereo not given) [Citalopram hydrobromide] | 1.07
77 | CN(C)CCCC1(c2ccc(F)cc2)OCc2cc(C#N)ccc21 (stereo not given) [Citalopram Hydrobromide] | 0.963
78 | CCCC(CCC)C(=O)O [Valproic acid] | 1.02 ± 0.086
79 | CCCC(CCC)C(=O)O [Sodium valproate] | 1.08
80 | CCCC(CCC)C(=O)O [Sodium Valproate] | 1.04

Quoted from above, nos. 55 to 57
Row | SMILES | surface PD-L1 immunofluorescence intensity
55 | CCC(CC)[C@H](NC(C)=O)[C@@H]1[C@H](O)[C@@H](C(=O)O)C[C@H]1NC(=N)N [Peramivir  Trihydrate] | 1.05
56 | COc1ccccc1OCCNCC(O)COc1cccc2[nH]c3ccccc3c12 (stereo not given) [Carvedilol] | 0.9786 ± 0.0016
57 | O=C(O)c1ccccc1Nc1cccc(OCc2ccc3ccccc3n2)c1 [SR 2640 hydrochloride] | 1.01
